The list shows a part of the results. The main result of the screen is listed elsewhere. These columns were measured beside it and carry no call. The list favours compounds with an active or inconclusive main result. The note in brackets gives the kind of curve behind each potency; many fits are weak.
Assay: qHTS Assay for Lipid Storage Modulators in Drosophila S3 Cells;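 as to cell number change: cells counted by Cell Tracker Red CMTPX staining in the red channel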
Settings: BODIPY lipid droplet fluorescence, 18-24 h; for cell number change: measured here: cell count max response, cells fed with added oleic acid
In short: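 Drosophila S3 cells loaded with oleic acid (400 uM, as added) and compounds at several concentrations; lipid droplets imaged by 488-nm laser-scanning cytometry, 500–530 nm intensity and object ratio to cell channel. Percent activity normalized to 20 uM Triacsin C.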

[1] = measured here: lipid fluorescence (Fed channel) AC50, cells fed with added oleic acid
[2] = measured here: cell number channel AC50, cells fed with added oleic acid

With `CCOc1cc(C(=O)Nc2ccc(F)cc2)cc(Br)c1OC` the cell number change was 19.2% and the AC50 [1] was 29.1 µM [rising, single point].

`CCOc1ccc(C(=S)N2CCCC2)cc1OCC` showed a cell number change of 1.57%.

Compound `COc1ccc(S(=O)(=O)Nc2ccccc2C(=O)N2CCOCC2)cc1Br` has a cell number change of -21.8%.

With `CC(CNC(=O)c1ccc(N)cc1)NC(=O)c1ccc(N)cc1` (configuration not stated) the cell number change was -18.1% and the AC50 [1] was 0.092 µM [falling, full curve, poor fit].

With `CCC(=O)c1ccc(OCC(=O)NCCc2ccccn2)cc1` the cell number change was -36% and the AC50 [2] was 32.6 µM [falling, single point].

For `COc1cc(/C=N/NC(=O)Cc2cccs2)c([N+](=O)[O-])cc1OC`, the cell number change was -22.8% and the AC50 [2] was 0.092 µM [rising, full curve, poor fit].

With `O=C(O)C1CCCCC1C(=O)NCCCCc1ccccc1` (configuration not stated) the cell number change was 11.2% and the AC50 [1] was 3.26 µM [rising, full curve, poor fit].

`COc1ccc(CNC(=O)c2cnc(C)cn2)cc1` showed a cell number change of -1.74%.

Work on `O=C(Cn1c(CO)nc2ccccc21)NC1CCCCCC1` yielded a cell number change of 24.2%.

With `Cc1cc(C(=O)OCC(=O)Nc2cc(S(=O)(=O)N(C)C)ccc2Cl)c2ccccc2n1` the cell number change was 82.1%, the AC50 [2] was 32.6 µM [rising, partial curve, poor fit] and the AC50 [1] was 0.00461 µM [rising, full curve, poor fit].

In the case of `Nc1nonc1-n1nnc(C(=O)N/N=C/C2CC=CCC2)c1CSc1ccccc1` (configuration not stated), the cell number change is reported as 20.8% and the AC50 [1] is reported as 2.06 µM [rising, full curve, poor fit].

For `O=C(N[C@@H](Cc1ccccc1)C(=O)OCc1ccccc1)c1nc[nH]c1C(=O)NC1CCNCC1`, the cell number change was 11.6%, the AC50 [2] was 4.11 µM [falling, single point] and the AC50 [1] was 6.51 µM [falling, single point].

With `Cc1nn(-c2ccccc2)c(Cl)c1/C=N/NS(=O)(=O)c1ccc(Br)cc1` the AC50 [1] was 29.1 µM [rising, single point].

With `CCCN(C(=O)c1ccc(-n2cncn2)c([N+](=O)[O-])c1)C1CCS(=O)(=O)C1` (configuration not stated) the cell number change was -6.61% and the AC50 [1] was 25.9 µM [falling, single point].

In the case of `Cc1cccc(C)c1N(CC(=O)NN=C1CCCCCC1)S(C)(=O)=O`, the AC50 [1] is reported as 6.51 µM [falling, single point].

With `Cc1ccc(O)c(-c2[nH]ncc2C(=O)c2ccc(Cl)cc2)c1` the cell number change was 23.4% and the AC50 [1] was 0.651 µM [rising, partial curve, poor fit].

With `O=C(Nc1cc(Cl)cc(Cl)c1)C1CCCC1` the AC50 [1] was 23.1 µM [falling, single point].

With `CCOC(=O)COc1ccc(C(=O)c2ccccc2)c(O)c1` the cell number change was -28.7%.

For `O=Cc1c(NCc2ccccc2)c2ccccc2[nH]c1=O`, the AC50 [1] was 6.51 µM [falling, single point].

With `C/C(=N\NC(=O)c1cccc(Br)c1)c1ccccn1` the cell number change was -30.2%, the AC50 [2] was 2.06 µM [falling, full curve] and the AC50 [1] was 3.26 µM [falling, full curve].

With `COc1ccccc1NC(=O)C1CCCN(S(=O)(=O)c2cccc3nsnc23)C1` (configuration not stated) the AC50 [2] was 5.8 µM [rising, single point] and the AC50 [1] was 13 µM [rising, partial curve, poor fit].

In the case of `O=C(CN1C2=NCCCN2c2ccccc21)c1ccc2c(c1)OCO2`, the cell number change is reported as 8.8% and the AC50 [1] is reported as 0.461 µM [rising, partial curve].

`CCOc1ccc(S(=O)(=O)N2CCN(Cc3ccc4c(c3)OCO4)CC2)cc1OCC` gave a cell number change of 20.5%.

In the case of `COc1ccc(CCNS(=O)(=O)c2cn(C)cn2)cc1OC`, the cell number change is reported as 18% and the AC50 [1] is reported as 16.4 µM [rising, partial curve].

With `COc1ccc(CN(CCC(c2ccco2)C(C)C)C(C)=O)cc1OC` (configuration not stated) the cell number change was 14.4% and the AC50 [1] was 5.8 µM [rising, full curve, poor fit].

For `CCOCCn1c(CN2CCN(c3ccc(F)cc3)CC2)nc2c1c(=O)n(C)c(=O)n2C`, the cell number change was 2.06% and the AC50 [1] was 29.1 µM [falling, single point].

In the case of `Cc1ccc2nc(-c3ccc(NC(=O)COCC(=O)O)cc3)sc2c1`, the cell number change is reported as -41.3%, the AC50 [2] is reported as 29.1 µM [falling, single point] and the AC50 [1] is reported as 23.1 µM [falling, partial curve, poor fit].

With `CC1CN(S(=O)(=O)c2cccc(C(F)(F)F)c2)CN1C(=O)N1CCOCC1` (configuration not stated) the cell number change was 13.2% and the AC50 [1] was 0.206 µM [falling, full curve].

With `CCCOc1ccc(C(=O)Nc2ccc(S(=O)(=O)N3CCN(C)CC3)cc2)cc1` the cell number change was 30.8% and the AC50 [2] was 36.6 µM [rising, single point].

With `CC(C)=CC(=O)NCCc1ccccc1` the cell number change was -73.3% and the AC50 [2] was 20.6 µM [falling, partial curve].

In the case of `CCC(C)c1ccc(S(=O)(=O)N2CCN(C(C)C(=O)NC3CCCC3)CC2)cc1` (configuration not stated), the cell number change is reported as 27.4% and the AC50 [1] is reported as 0.0411 µM [rising, full curve].

In the case of `CCN(c1cccc(C(F)(F)F)c1)S(=O)(=O)c1ccc2c(c1)CCN2C(C)=O`, the AC50 [2] is reported as 2.06 µM [rising, partial curve].

With `Cc1cc(C)n(-c2ccc(C(=O)N3CCN(S(=O)(=O)c4ccc(Cl)cc4)CC3)cc2)n1` the cell number change was 3.48% and the AC50 [1] was 0.92 µM [rising, full curve].

In the case of `O=C(NCCCN1CCOCC1)C(C(=O)NCCCN1CCOCC1)c1ncc(C(F)(F)F)cc1Cl`, the cell number change is reported as -35.6%, the AC50 [2] is reported as 15.8 µM [falling, partial curve] and the AC50 [1] is reported as 15.8 µM [falling, partial curve].

In the case of `Cc1cc(C)n(-c2ccc(C(=O)OCC(=O)Nc3ccc([N+](=O)[O-])cc3)cc2)n1`, the cell number change is reported as -17.4%, the AC50 [2] is reported as 6.51 µM [falling, single point] and the AC50 [1] is reported as 8.2 µM [rising, partial curve].

In the case of `O=C(NCc1ccco1)c1ccc2c(=O)n(-c3ccccc3)c(=S)[nH]c2c1`, the cell number change is reported as 6.07% and the AC50 [1] is reported as 32.6 µM [rising, partial curve].

For `Cc1cccn2c(=O)c3cc(C(=O)N4CCCCC4)sc3nc12`, the cell number change was -8.97% and the AC50 [1] was 25.9 µM [falling, single point].

For `Cc1ccc(-n2ncc3c2CCCC3NC(=O)CCN2CCCC2=O)cc1C` (configuration not stated), the cell number change was -56.4%, the AC50 [2] was 32.6 µM [falling, partial curve, poor fit] and the AC50 [1] was 29.1 µM [falling, single point].

Source: PubChem BioAssay AID2685 (National Center for Advancing Translational Sciences (NCATS), 2010)
